Results reported in publication PMC7407367.
Results are given in words; binding and its absence hold for the method and conditions named. In cells and extracts the contact can be indirect. Some entries that bind do so weakly or less than the wild type.

Chains of the proteins cited; added tags and fusions are not shown.
UniProt O15061: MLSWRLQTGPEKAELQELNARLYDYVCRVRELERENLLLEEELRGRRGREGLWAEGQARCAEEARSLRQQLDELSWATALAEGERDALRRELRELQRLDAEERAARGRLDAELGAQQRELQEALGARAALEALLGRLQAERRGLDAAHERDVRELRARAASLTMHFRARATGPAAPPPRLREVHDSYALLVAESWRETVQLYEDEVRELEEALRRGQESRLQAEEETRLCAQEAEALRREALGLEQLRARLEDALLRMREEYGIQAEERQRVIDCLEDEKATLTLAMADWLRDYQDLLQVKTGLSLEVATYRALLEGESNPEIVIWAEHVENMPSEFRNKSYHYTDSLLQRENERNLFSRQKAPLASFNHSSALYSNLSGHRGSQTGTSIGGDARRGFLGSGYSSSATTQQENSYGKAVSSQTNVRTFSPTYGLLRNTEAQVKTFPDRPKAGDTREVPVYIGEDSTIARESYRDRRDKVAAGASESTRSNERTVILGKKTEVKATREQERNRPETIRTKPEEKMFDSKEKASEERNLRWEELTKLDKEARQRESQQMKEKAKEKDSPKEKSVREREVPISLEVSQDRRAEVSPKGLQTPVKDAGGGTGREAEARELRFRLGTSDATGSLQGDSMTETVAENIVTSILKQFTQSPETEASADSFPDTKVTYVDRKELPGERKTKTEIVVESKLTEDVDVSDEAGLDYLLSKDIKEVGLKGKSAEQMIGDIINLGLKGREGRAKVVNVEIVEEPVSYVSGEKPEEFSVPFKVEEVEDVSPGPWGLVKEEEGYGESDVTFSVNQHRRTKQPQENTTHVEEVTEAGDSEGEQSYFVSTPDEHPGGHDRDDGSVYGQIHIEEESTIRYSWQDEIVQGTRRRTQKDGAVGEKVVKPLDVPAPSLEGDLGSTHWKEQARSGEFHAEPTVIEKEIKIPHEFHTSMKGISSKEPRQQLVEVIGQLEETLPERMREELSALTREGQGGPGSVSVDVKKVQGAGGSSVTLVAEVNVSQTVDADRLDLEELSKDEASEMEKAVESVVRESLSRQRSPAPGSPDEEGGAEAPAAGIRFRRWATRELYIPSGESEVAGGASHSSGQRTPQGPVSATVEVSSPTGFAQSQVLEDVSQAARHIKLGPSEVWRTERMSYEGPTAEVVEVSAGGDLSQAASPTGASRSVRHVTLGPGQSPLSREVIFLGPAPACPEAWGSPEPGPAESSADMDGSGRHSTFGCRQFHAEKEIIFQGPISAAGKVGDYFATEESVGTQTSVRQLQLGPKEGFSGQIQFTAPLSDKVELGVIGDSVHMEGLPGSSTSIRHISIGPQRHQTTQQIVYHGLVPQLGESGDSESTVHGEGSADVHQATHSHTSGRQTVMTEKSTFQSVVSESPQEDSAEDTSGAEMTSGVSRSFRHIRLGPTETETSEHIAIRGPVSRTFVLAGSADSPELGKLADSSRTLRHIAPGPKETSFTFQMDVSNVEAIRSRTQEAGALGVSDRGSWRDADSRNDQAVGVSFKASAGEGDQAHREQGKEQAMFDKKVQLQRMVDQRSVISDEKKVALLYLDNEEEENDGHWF
UniProt P78527: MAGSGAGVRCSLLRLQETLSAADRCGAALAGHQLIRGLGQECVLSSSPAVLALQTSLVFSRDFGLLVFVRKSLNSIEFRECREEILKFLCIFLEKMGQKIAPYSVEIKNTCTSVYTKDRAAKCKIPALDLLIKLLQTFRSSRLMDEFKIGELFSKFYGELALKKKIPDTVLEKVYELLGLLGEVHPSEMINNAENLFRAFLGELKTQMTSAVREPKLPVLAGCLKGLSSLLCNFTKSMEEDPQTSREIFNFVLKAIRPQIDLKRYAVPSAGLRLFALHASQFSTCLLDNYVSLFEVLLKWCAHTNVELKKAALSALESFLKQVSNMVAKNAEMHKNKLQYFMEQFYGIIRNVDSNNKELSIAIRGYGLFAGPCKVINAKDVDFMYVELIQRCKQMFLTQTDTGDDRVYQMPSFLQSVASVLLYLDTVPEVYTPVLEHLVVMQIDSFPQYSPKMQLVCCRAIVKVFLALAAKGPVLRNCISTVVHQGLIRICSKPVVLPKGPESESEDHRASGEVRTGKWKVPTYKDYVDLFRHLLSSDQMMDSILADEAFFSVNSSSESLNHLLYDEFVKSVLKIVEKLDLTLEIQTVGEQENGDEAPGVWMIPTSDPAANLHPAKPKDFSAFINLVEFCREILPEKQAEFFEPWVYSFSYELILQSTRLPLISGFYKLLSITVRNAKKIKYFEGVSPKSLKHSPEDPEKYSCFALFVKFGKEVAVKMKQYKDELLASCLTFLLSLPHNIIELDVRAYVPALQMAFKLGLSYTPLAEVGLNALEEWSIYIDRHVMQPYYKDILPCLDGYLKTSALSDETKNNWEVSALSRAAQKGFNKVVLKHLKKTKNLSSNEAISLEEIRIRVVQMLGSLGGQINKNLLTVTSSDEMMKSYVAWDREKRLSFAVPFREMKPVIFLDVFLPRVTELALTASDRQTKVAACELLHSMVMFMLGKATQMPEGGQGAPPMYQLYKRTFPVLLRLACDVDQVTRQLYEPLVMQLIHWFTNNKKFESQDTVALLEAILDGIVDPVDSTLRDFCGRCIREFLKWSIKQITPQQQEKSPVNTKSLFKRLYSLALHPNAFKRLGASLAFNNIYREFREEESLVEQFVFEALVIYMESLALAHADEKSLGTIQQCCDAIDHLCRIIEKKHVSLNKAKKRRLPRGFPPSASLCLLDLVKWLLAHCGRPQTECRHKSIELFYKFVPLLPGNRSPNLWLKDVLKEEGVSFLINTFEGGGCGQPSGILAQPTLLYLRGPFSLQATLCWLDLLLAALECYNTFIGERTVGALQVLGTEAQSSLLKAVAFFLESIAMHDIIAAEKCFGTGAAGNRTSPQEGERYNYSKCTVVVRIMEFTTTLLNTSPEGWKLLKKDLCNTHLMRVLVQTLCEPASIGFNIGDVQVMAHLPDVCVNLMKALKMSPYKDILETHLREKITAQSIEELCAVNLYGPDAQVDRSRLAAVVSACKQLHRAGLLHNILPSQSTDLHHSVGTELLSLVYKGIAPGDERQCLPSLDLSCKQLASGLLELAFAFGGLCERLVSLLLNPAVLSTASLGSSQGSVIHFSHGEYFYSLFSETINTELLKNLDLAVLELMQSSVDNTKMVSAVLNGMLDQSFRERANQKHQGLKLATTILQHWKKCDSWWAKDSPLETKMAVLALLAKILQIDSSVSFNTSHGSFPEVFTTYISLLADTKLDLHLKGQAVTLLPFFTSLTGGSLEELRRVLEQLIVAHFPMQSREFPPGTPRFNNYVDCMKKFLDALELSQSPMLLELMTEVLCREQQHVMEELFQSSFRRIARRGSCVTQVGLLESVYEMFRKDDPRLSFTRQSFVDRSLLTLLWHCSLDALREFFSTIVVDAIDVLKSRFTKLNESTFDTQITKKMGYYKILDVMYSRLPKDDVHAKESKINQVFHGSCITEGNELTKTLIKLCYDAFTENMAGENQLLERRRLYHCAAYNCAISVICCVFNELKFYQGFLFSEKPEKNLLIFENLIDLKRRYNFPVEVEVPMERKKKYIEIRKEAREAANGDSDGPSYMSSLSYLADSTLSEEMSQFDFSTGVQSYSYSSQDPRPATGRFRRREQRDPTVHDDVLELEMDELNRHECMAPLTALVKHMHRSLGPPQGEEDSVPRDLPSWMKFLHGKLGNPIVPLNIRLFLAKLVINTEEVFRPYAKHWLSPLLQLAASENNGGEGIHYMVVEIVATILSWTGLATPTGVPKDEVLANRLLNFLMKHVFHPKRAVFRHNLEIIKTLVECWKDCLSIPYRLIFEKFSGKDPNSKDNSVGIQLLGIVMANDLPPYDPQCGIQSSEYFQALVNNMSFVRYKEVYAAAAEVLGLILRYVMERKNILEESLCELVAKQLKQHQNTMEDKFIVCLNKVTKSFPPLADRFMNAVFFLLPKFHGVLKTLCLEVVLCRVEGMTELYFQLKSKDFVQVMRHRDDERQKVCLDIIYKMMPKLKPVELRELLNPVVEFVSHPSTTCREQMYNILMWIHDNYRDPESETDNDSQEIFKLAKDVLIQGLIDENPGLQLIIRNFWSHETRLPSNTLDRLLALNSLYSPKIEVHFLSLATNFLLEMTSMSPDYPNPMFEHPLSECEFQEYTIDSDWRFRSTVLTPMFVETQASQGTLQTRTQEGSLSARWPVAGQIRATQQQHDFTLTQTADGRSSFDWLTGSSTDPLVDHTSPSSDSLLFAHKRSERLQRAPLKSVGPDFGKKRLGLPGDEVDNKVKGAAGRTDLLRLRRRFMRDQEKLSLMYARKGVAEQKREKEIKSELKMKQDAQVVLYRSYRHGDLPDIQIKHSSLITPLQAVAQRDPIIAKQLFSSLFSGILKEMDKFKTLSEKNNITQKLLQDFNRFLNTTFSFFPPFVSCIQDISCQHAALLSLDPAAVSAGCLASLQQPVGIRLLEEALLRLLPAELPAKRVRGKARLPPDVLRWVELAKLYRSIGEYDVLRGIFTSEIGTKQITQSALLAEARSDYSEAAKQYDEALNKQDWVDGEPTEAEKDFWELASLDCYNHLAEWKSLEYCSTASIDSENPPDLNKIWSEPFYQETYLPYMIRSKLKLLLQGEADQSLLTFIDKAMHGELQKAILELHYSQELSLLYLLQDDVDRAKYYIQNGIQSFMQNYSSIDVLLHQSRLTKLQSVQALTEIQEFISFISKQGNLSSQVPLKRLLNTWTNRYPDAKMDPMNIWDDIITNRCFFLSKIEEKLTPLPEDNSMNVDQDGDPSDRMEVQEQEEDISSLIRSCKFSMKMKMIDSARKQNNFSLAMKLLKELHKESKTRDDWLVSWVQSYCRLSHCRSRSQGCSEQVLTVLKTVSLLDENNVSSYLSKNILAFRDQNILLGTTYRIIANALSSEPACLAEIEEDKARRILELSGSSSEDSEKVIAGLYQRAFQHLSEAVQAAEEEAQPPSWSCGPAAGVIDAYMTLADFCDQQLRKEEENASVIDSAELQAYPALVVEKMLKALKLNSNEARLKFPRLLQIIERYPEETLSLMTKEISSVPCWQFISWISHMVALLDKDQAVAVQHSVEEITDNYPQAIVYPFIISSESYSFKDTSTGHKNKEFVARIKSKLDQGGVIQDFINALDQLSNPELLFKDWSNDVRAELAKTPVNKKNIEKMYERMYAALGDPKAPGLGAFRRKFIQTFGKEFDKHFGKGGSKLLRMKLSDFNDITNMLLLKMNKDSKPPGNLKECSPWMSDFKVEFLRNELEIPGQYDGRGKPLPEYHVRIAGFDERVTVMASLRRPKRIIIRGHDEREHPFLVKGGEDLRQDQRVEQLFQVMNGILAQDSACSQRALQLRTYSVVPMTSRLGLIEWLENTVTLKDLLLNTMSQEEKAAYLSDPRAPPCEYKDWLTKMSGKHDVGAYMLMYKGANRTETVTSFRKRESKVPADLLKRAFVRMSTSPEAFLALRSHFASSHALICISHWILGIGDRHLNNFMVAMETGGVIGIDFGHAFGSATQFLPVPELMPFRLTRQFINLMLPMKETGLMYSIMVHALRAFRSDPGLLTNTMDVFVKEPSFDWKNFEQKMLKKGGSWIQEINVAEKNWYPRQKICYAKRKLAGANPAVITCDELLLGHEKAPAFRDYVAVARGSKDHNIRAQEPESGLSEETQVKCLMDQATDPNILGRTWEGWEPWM

How the values were obtained:
[1] = biological target: synemin (endogenous) (human (endogenous in SAS)) (UniProt O15061); assay: condition: only in ATM-depleted SKX cells (ATM downregulation by miR-421 overexpression); co-IP; immunoprecipitation of endogenous synemin from SKX cells (ATM downregulated by miR-421 overexpression), unirradiated and 1 h after 6-Gy X-rays; blot for DNA-PKcs
[2] = biological target: mCherry–Synemin (human) (UniProt O15061); assay: co-IP; mCherry immunoprecipitates from mCherry–Synemin-SAS cells, mCherry-SAS as control; unirradiated cells and cells 1 h after 6-Gy X-rays; blot for DNA-PKcs
[3] = biological target: synemin (endogenous) (human (endogenous in SAS)) (UniProt O15061); assay: co-IP; immunoprecipitation of endogenous synemin from SAS cell lysates with protein A/G beads, IgG control; unirradiated cells and cells 1 h after 6-Gy X-rays; blot for DNA-PKcs
[4] = biological target: synemin (endogenous) (human (endogenous in SAS)) (UniProt O15061); assay: proximity ligation; Duolink PLA with mouse and rabbit PLUS and MINUS probes, between synemin and DNA-PKcs S2056; signal mainly nuclear

DNA protein kinase catalytic subunit (DNA-PKcs) (from UniProt P78527 1-4128)
binding [1]: no binding
binding [2]: binds
binding [3]: binds

DNA-PKcs S2056 (phosphorylated form of DNA-PKcs) (from UniProt P78527 1-4128)
binding [4]: binds
